# In the supplement of paper PMC4683952:
# The list shows a part of the results. Rule as the data show it: active = 2 or more and inactive = the rest. Single values are uncertain here, since repeats match poorly.
# Tested on: Lgr5 (MarsCy1-Lgr5-EGFP, U2OS)
# Test: cell-surface Lgr5 expression (SCi1 fluorescence, background-subtracted) relative to WT DMSO (fold of DMSO control); higher = more Lgr5 at the plasma membrane
# Conditions: U2OS MarsCy1-Lgr5-EGFP stable; treatment time: overnight; library: ActiProbe-5K (TimTec); 25 µM
row,Compound,cell-surface Lgr5 expression
1,O=C(O)c1ccc(Cl)s1,inactive: 1.09
2,c1ccc(Sc2ccc3ccccc3n2)cc1,inactive: 0.695
3,C#CCSc1nc2c(cc1C#N)CCCC2,inactive: 1.62
4,O=c1[nH]c2ccc(Cl)cc2o1,inactive: 1.14
5,CCOc1sc(C)c(C)c(=O)c1N,inactive: 0.971
6,CC1=C(C)N(c2ccccc2)N=C(S)S1,inactive: 1.67
7,COC(=O)c1[nH]nc(-c2n[nH]c(C(=O)OC)c2[N+](=O)[O-])c1[N+](=O)[O-],inactive: 1.13
8,CN(/N=C\c1ccc(OCc2ccccc2)cc1)C1=NS(=O)(=O)c2ccccc21,inactive: 1.06
9,O=C(Cc1cccs1)N/N=C/c1cc(Br)c(Br)o1,inactive: 1.06
10,Nc1c(C(=O)C2CC2)sc2nc3c(cc12)CCCC3,inactive: 1.23
11,O=C(CCC1CCCCC1)Nc1nc2c(s1)CCCCC2,inactive: 1.3
12,CCOC(=O)c1n[nH]c(C(C)(C)C)c1Br,inactive: 1.05
13,Nc1nonc1NC(=O)CSC1=NCCS1,inactive: 1.21
14,Nc1ccc(S(N)(=O)=O)cc1,inactive: 1.21
15,NNC(=O)CCCCC1SCC2NC(=O)NC21 (stereo unspecified),inactive: 1.09
16,Cn1cccc1/C=C(/C#N)C(N)=O,inactive: 1.54
17,c1cc(CCCc2ccncc2)ccn1,inactive: 0.881
18,CNC(=O)c1c(NC(=O)c2cccs2)sc2c1CCCC2,inactive: 1.24
19,O=C(O)C1CCCN1S(=O)(=O)c1ccc(Br)s1 (stereo unspecified),inactive: 1.18
20,Clc1ccc(Cl)c(-c2nc3ccccc3o2)n1,inactive: 1.68
21,Cn1ncc([N+](=O)[O-])c1C(=O)NNC(=S)NC1CC1,inactive: 1.32
22,c1ccc2[nH]c(CSc3nc4ccccc4[nH]3)nc2c1,inactive: 1.15
23,N=c1[nH]c(=O)c2ncn([C@H]3C[C@H](O)[C@@H](CO)O3)c2[nH]1,inactive: 0.867
24,O=S(=O)(c1cccc2nsnc12)N1CCN(C(c2ccccc2)c2ccccc2)CC1,inactive: 0.888

# Three records picked at random from those above:
row,Compound,cell-surface Lgr5 expression
20,Clc1ccc(Cl)c(-c2nc3ccccc3o2)n1,inactive: 1.68
4,O=c1[nH]c2ccc(Cl)cc2o1,inactive: 1.14
2,c1ccc(Sc2ccc3ccccc3n2)cc1,inactive: 0.695

# The list goes on.

row,Compound,cell-surface Lgr5 expression
1,Nc1cc(=O)[nH]c(=S)n1C1CCCC1,inactive: 0.982
2,CNC(=S)N1CCOCC1,inactive: 0.906
3,O=c1ccc2nc3ccc([O-])cc3oc-2c1,inactive: 0.746
4,Nc1ccc2nn(-c3cccc4ccccc34)nc2c1,inactive: 0.936
5,Cn1c(=O)c2[nH]c(Br)c(Br)c2n(C)c1=O,inactive: 0.937
6,Cc1nc2sc(-c3ccon3)c(N)c2c(C)c1Cl,inactive: 1.04
7,s1cc(cc1/C=C(\C#N)C#N)CSc1n(nnn1)C,inactive: 0.859
8,Cc1nn(CCCN2C(=O)CS/C2=N\C2CC2)c(C)c1Br,inactive: 1.35
9,Cn1nc(C2CC2)c2c(C(F)F)cc(-c3ccc4c(c3)OCO4)nc21,inactive: 1.22
10,[Cl-].[NH3+]Cc1c(F)cc(F)c(F)c1F,inactive: 1.26
11,N(C)(c1ccccc1)C(/N=C(\N)N)=N,inactive: 1.23
12,ClCCOc1nc(OCCCl)nc(OCCCl)n1,inactive: 1.25
13,Nc1ncnc2oc(-c3ccoc3)c(-c3ccco3)c12,inactive: 0.782
14,COc1ccc(Cl)cc1NS(=O)(=O)N(C)C,inactive: 0.867
15,Cc1cc(-n2nc(N)nc2N)n2ncnc2n1,inactive: 1.29
16,O=C(N/N=C/c1cccs1)c1ccco1,inactive: 1.05
17,Cc1[nH]nc2c1C(C(C)C)C(C#N)=C(N)O2 (stereo unspecified),inactive: 0.917
18,Oc1nc(S)nc2sc3c(c12)CCCC3,inactive: 1.23
19,Nc1cc(N)nc(SCCOc2ccc(Cl)cc2)n1,inactive: 1.23
20,CC(=O)Nc1nonc1NC(=O)CSc1nc[nH]n1,inactive: 0.978
21,c1coc(CN2COc3cc4c(cc3C2)OCN(Cc2ccco2)C4)c1,inactive: 1.54
22,COc1ccc(OCCSc2nc3ccccc3o2)cc1,inactive: 1.07
23,Cc1ccsc1C1C(C#N)=C(N)Oc2n[nH]c(C(C)(C)C)c21 (stereo unspecified),inactive: 1.09
24,COc1ccc(-c2cc(C(F)(F)C(F)F)on2)cc1,inactive: 1.15

row,Compound,cell-surface Lgr5 expression
1,CCN1c2ccccc2-c2c(ssc2=S)C1(C)C,inactive: 0.779
2,C/C(=N/C1CC1)c1c(C)[nH]n(-c2nc3ccccc3s2)c1=O,inactive: 1.64
3,CC1(C)CC(=O)C2=C(C1)OC(=O)C2(NC(=O)c1cccs1)C(F)(F)F (stereo unspecified),inactive: 1.03
4,COc1ccc2sc(N)nc2c1,inactive: 1.33
5,CCOC(=O)/C(C#N)=C/Nc1cc(C)on1,inactive: 0.969
6,CSC(=O)/C(C#N)=C/c1ccoc1,inactive: 1.27
7,COC(=O)c1n[nH]cc1N,inactive: 1.14
8,Fc1ccc(SCSc2ccccc2)cc1,inactive: 1.06
9,CC(=O)C1=C(C)Nc2ncnn2C1c1cccs1 (stereo unspecified),inactive: 0.937
10,Cc1nn(C)cc1-c1nnc(-c2ccnn2C(F)F)o1,inactive: 1.18
11,COC(=O)CSc1nsc(SCC(=O)OC)c1C#N,inactive: 1.03
12,CN(C)c1nc(N)nc(CN(c2ccc(F)cc2)S(C)(=O)=O)n1,inactive: 1.52
13,CC(=O)C(C(C)=O)C12CC3CC(CC(C3)C1)C2,inactive: 1.05
14,C(=N/N1CCN(C2c3ccccc3-c3ccccc32)CC1)/c1c[nH]c2ccccc12,inactive: 1.17
15,C#CCNC1CCCCC1C(C)=O (stereo unspecified),inactive: 1.02
16,O=C(O)CC(C(=O)O)C1CCCO1 (stereo unspecified),inactive: 1.3
17,CCn1cc2nnn(Cc3ccco3)c(=O)c2n1,inactive: 1.31
18,N#Cc1ccnc(Oc2ccc(F)cc2F)c1,inactive: 1.39
19,O=[N+]([O-])c1ccc(/C=N\c2cc(Cl)c(Cl)cc2Cl)o1,inactive: 1.22
20,CCOC1(C)OC2CCC(CC)OC2O1 (stereo unspecified),inactive: 1.21
21,Cc1ccc(C2=NNC(C)(C3(C)NN=C(c4ccc(C)cc4)S3)S2)cc1 (stereo unspecified),inactive: 1.25
22,CC(=O)Nc1ccc(NC(=N)Nc2nc(C)cc(C)n2)cc1,inactive: 1.07
23,CCC1C[N+]2(C)CCC34C(=C(C=O)[C@H]1C[C@@H]32)Nc1ccccc14 (stereo partly specified),inactive: 1.34
